From PMC4822136
These are yes or no findings as the source states them, for the method shown. Binding seen in cells or lysates may run through a third protein. Some entries that bind do so weakly or less than the wild type. Where a sequence is shown, tags or fusion partners need not be part of it.

The chains behind the UniProt entries cited, without tags or fusion partners.
UniProt P05412: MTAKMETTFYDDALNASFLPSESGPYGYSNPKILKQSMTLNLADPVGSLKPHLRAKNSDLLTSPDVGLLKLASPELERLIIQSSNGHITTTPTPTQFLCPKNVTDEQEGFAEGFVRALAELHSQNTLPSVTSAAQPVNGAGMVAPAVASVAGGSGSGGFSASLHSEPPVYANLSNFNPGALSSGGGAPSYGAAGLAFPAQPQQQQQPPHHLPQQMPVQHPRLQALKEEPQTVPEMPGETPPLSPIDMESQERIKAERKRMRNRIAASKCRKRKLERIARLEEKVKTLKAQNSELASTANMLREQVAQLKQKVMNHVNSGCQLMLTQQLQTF

T1: Flag-tagged TRIM69 (human) (UniProt Q86WT6)
T1 sequence: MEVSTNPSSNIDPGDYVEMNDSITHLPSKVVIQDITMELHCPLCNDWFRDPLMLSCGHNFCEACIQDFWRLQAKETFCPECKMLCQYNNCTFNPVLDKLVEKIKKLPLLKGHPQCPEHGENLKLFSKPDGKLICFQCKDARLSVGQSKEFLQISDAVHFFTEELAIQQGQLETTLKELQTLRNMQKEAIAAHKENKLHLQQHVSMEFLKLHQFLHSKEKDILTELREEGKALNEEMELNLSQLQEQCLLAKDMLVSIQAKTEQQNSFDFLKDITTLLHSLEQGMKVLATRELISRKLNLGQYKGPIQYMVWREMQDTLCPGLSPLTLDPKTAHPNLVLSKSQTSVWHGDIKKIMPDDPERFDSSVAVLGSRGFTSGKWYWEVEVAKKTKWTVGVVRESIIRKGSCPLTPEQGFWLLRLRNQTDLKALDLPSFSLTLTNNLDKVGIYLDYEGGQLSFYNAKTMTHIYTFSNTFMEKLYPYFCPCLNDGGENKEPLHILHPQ


What was measured:
[1] = biological target: T1, Flag-tagged TRIM69 (human); experiment: co-IP; HEK293T cells co-transfected with Flag-TRIM69 and HA-c-Jun; lysed in NETN buffer 48 h after transfection; complexes isolated with anti-Flag beads (M2) or, in the reverse experiment, anti-HA beads; immunoblot
HA-tagged c-Jun = HA-tagged c-Jun (UniProt P05412); experiment: as above

binding [1]	binding (HA-tagged c-Jun)	Molecule
binds	–	HA-tagged c-Jun (from UniProt P05412 1-331)
–	binds	Flag-tagged TRIM69 (protein, UniProt Q86WT6 1-500) MEVSTNPSSNIDPGDYVEMNDSITHLPSKVVIQDITMELHCPLCNDWFRDPLMLSCGHNFCEACIQDFWRLQAKETFCPECKMLCQYNNCTFNPVLDKLVEKIKKLPLLKGHPQCPEHGENLKLFSKPDGKLICFQCKDARLSVGQSKEFLQISDAVHFFTEELAIQQGQLETTLKELQTLRNMQKEAIAAHKENKLHLQQHVSMEFLKLHQFLHSKEKDILTELREEGKALNEEMELNLSQLQEQCLLAKDMLVSIQAKTEQQNSFDFLKDITTLLHSLEQGMKVLATRELISRKLNLGQYKGPIQYMVWREMQDTLCPGLSPLTLDPKTAHPNLVLSKSQTSVWHGDIKKIMPDDPERFDSSVAVLGSRGFTSGKWYWEVEVAKKTKWTVGVVRESIIRKGSCPLTPEQGFWLLRLRNQTDLKALDLPSFSLTLTNNLDKVGIYLDYEGGQLSFYNAKTMTHIYTFSNTFMEKLYPYFCPCLNDGGENKEPLHILHPQ
